# Test results reported in the supplement of paper PMC8728848.
# This is one part of the list.
# B1: Pwp7 (Candida glabrata) (protein)
# chain: MGSSHHHHHHSSGLVPRGSHMASKNPVDFPNLCQYPNLDGAVAGFDTEIYNADPSILINFSLWPILQFPKEWHKTIGRAITTQTNFKLPASDTTLFGVSIPTQNILIEFRGYFIPPKSGTYTFALYLTDDGSAMFLGNDAAFPCGNITSWSNPTNDQVSVSDYDPKKKTLTVYMVAGVAYPLRIAYYNREKGGSLTASFVDPDGLTHSDWNGYIWTLPSCDNCKYS
# How the values were obtained:
# Assay in all cases: glycan array binding signal (z-score within array); higher = stronger binding
# Settings in all cases: glycan notation: IUPAC condensed, linker removed
# [1] = biological target: Gal(b1-3)GlcNAc(b1-6)[Gal(b1-3)]GalNAc
# Method in brief: (§1)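 From the Consortium for Functional Glycomics database, 3228 arrays were curated, keeping only those whose protein sequence was available. Binding is given as a within-array Z-score averaged across arrays sharing a protein sequence and across linkers. Negative Z-scores can be read as non-binding.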
# [2] = biological target: Gal(b1-3)GlcNAc6S
# Method in brief: as §1
# [3] = biological target: Gal(b1-3)[Fuc(a1-4)]GlcNAc
# Method in brief: as §1
# [4] = biological target: Gal(b1-3)[Fuc(a1-4)]GlcNAc(b1-2)Man
# Method in brief: as §1
# [5] = biological target: Gal(b1-3)[Fuc(a1-4)]GlcNAc(b1-2)Man(a1-3)[Gal(b1-3)[Fuc(a1-4)]GlcNAc(b1-2)Man(a1-6)]Man(b1-4)GlcNAc(b1-4)[Fuc(a1-6)]GlcNAc
# Method in brief: as §1
# [6] = biological target: Gal(b1-3)[Fuc(a1-4)]GlcNAc(b1-3)Gal(b1-3)[Fuc(a1-4)]GlcNAc
# Method in brief: as §1
# [7] = biological target: Gal(b1-3)[Fuc(a1-4)]GlcNAc(b1-3)Gal(b1-4)[Fuc(a1-3)]GlcNAc
# Method in brief: as §1
# [8] = biological target: Gal(b1-3)[Fuc(a1-4)]GlcNAc(b1-6)GalNAc
# Method in brief: as §1
# [9] = biological target: Gal(b1-3)[GlcNAc(b1-6)]GalNAc
# Method in brief: as §1
# [10] = biological target: Gal(b1-3)[Neu5Ac(a2-6)]GalNAc
# Method in brief: as §1
# [11] = biological target: Gal(b1-3)[Neu5Ac(a2-6)]GlcNAc(b1-4)Gal(b1-4)Glc
# Method in brief: as §1
# [12] = biological target: Gal(b1-3)[Neu5Ac(b2-6)]GalNAc
# Method in brief: as §1
# [13] = biological target: Gal(b1-4)Gal
# Method in brief: as §1
# [14] = biological target: Gal(b1-4)GalNAc(a1-3)[Fuc(a1-2)]Gal(b1-4)GlcNAc
# Method in brief: as §1
# [15] = biological target: Gal(b1-4)GalNAc(b1-3)[Fuc(a1-2)]Gal(b1-4)GlcNAc
# Method in brief: as §1
# [16] = biological target: Gal(b1-4)Glc
# Method in brief: as §1
# [17] = biological target: Gal(b1-4)Glc6S
# Method in brief: as §1
# [18] = biological target: Gal(b1-4)GlcNAc
# Method in brief: as §1
# [19] = biological target: Gal(b1-4)GlcNAc(a1-6)Gal(b1-4)GlcNAc
# Method in brief: as §1
# [20] = biological target: Gal(b1-4)GlcNAc(b1-2)Man
# Method in brief: as §1
# [21] = biological target: Gal(b1-4)GlcNAc(b1-2)Man(a1-3)Man(b1-4)GlcNAc(b1-4)GlcNAc
# Method in brief: as §1
# [22] = biological target: Gal(b1-4)GlcNAc(b1-2)Man(a1-3)[Gal(b1-4)GlcNAc(b1-2)Man(a1-6)]Man(b1-4)GlcNAc(b1-4)GlcNAc
# Method in brief: as §1
# [23] = biological target: Gal(b1-4)GlcNAc(b1-2)Man(a1-3)[Gal(b1-4)GlcNAc(b1-2)Man(a1-6)]Man(b1-4)GlcNAc(b1-4)[Fuc(a1-6)]GlcNAc
# Method in brief: as §1
# [24] = biological target: Gal(b1-4)GlcNAc(b1-2)Man(a1-3)[Gal(b1-4)GlcNAc(b1-2)Man(a1-6)][Gal(b1-4)GlcNAc(b1-4)]Man(b1-4)GlcNAc(b1-4)[Fuc(a1-6)]GlcNAc
# Method in brief: as §1
# [25] = biological target: Gal(b1-4)GlcNAc(b1-2)Man(a1-3)[Gal(b1-4)GlcNAc(b1-2)Man(a1-6)][GlcNAc(b1-4)]Man(b1-4)GlcNAc(b1-4)[Fuc(a1-6)]GlcNAc
# Method in brief: as §1
# [26] = biological target: Gal(b1-4)GlcNAc(b1-2)Man(a1-3)[GlcNAc(b1-2)Man(a1-6)]Man(b1-4)GlcNAc(b1-4)GlcNAc
# Method in brief: as §1
# [27] = biological target: Gal(b1-4)GlcNAc(b1-2)Man(a1-3)[GlcNAc(b1-4)][Gal(b1-4)GlcNAc(b1-2)Man(a1-6)]Man(b1-4)GlcNAc(b1-4)GlcNAc
# Method in brief: as §1
# [28] = biological target: Gal(b1-4)GlcNAc(b1-2)Man(a1-3)[Man(a1-6)]Man(b1-4)GlcNAc(b1-4)GlcNAc
# Method in brief: as §1
# [29] = biological target: Gal(b1-4)GlcNAc(b1-2)Man(a1-6)Man(b1-4)GlcNAc(b1-4)GlcNAc
# Method in brief: as §1
# [30] = biological target: Gal(b1-4)GlcNAc(b1-2)Man(a1-6)[GlcNAc(b1-2)Man(a1-3)]Man(b1-4)GlcNAc(b1-4)GlcNAc
# Method in brief: as §1
# [31] = biological target: Gal(b1-4)GlcNAc(b1-2)Man(a1-6)[Man(a1-3)]Man(b1-4)GlcNAc(b1-4)GlcNAc
# Method in brief: as §1
# [32] = biological target: Gal(b1-4)GlcNAc(b1-2)[Gal(b1-4)GlcNAc(b1-4)]Man(a1-3)[Gal(b1-4)GlcNAc(b1-2)Man(a1-6)]Man(b1-4)GlcNAc(b1-4)GlcNAc
# Method in brief: as §1
# [33] = biological target: Gal(b1-4)GlcNAc(b1-2)[Gal(b1-4)GlcNAc(b1-4)]Man(a1-3)[Gal(b1-4)GlcNAc(b1-2)[Gal(b1-4)GlcNAc(b1-6)]Man(a1-6)]Man(b1-4)GlcNAc(b1-4)GlcNAc
# Method in brief: as §1
# [34] = biological target: Gal(b1-4)GlcNAc(b1-2)[Gal(b1-4)GlcNAc(b1-4)]Man(a1-3)[GlcNAc(b1-4)][Gal(b1-4)GlcNAc(b1-2)Man(a1-6)]Man(b1-4)GlcNAc(b1-4)GlcNAc
# Method in brief: as §1
# [35] = biological target: Gal(b1-4)GlcNAc(b1-2)[Gal(b1-4)GlcNAc(b1-4)]Man(a1-3)[GlcNAc(b1-4)][Gal(b1-4)GlcNAc(b1-2)[Gal(b1-4)GlcNAc(b1-6)]Man(a1-6)]Man(b1-4)GlcNAc(b1-4)GlcNAc
# Method in brief: as §1
# [36] = biological target: Gal(b1-4)GlcNAc(b1-2)[Gal(b1-4)GlcNAc(b1-6)]Man(a1-6)[Gal(b1-4)GlcNAc(b1-2)Man(a1-3)]Man(b1-4)GlcNAc(b1-4)GlcNAc
# Method in brief: as §1
# [37] = biological target: Gal(b1-4)GlcNAc(b1-2)[Gal(b1-4)GlcNAc(b1-6)]Man(a1-6)[Gal(b1-4)GlcNAc(b1-2)Man(a1-3)]Man(b1-4)GlcNAc(b1-4)[Fuc(a1-6)]GlcNAc
# Method in brief: as §1
# [38] = biological target: Gal(b1-4)GlcNAc(b1-2)[Gal(b1-4)GlcNAc(b1-6)]Man(a1-6)[GlcNAc(b1-4)][Gal(b1-4)GlcNAc(b1-2)Man(a1-3)]Man(b1-4)GlcNAc(b1-4)GlcNAc
# Method in brief: as §1
# [39] = biological target: Gal(b1-4)GlcNAc(b1-2)[Gal(b1-4)GlcNAc(b1-6)]Man(a1-6)[GlcNAc(b1-4)][Gal(b1-4)GlcNAc(b1-2)[Gal(b1-4)GlcNAc(b1-4)]Man(a1-3)]Man(b1-4)GlcNAc(b1-4)[Fuc(a1-6)]GlcNAc
# Method in brief: as §1
# [40] = biological target: Gal(b1-4)GlcNAc(b1-3)Gal(b1-3)GalNAc
# Method in brief: as §1
# [41] = biological target: Gal(b1-4)GlcNAc(b1-3)Gal(b1-3)GlcNAc
# Method in brief: as §1
# [42] = biological target: Gal(b1-4)GlcNAc(b1-3)Gal(b1-4)Glc
# Method in brief: as §1
# [43] = biological target: Gal(b1-4)GlcNAc(b1-3)Gal(b1-4)GlcNAc
# Method in brief: as §1
# [44] = biological target: Gal(b1-4)GlcNAc(b1-3)Gal(b1-4)GlcNAc(b1-2)Man(a1-3)[Gal(b1-4)GlcNAc(b1-3)Gal(b1-4)GlcNAc(b1-2)Man(a1-6)]Man(b1-4)GlcNAc(b1-4)GlcNAc
# Method in brief: as §1
# [45] = biological target: Gal(b1-4)GlcNAc(b1-3)Gal(b1-4)GlcNAc(b1-2)Man(a1-3)[Gal(b1-4)GlcNAc(b1-3)Gal(b1-4)GlcNAc(b1-2)Man(a1-6)]Man(b1-4)GlcNAc(b1-4)[Fuc(a1-6)]GlcNAc
# Method in brief: as §1
binder,measurement,setting,value
B1,glycan array binding signal (z-score),[1],-0.235
same,glycan array binding signal (z-score),[2],-0.583
same,glycan array binding signal (z-score),[3],-0.451
same,glycan array binding signal (z-score),[4],0.048
same,glycan array binding signal (z-score),[5],-0.168
same,glycan array binding signal (z-score),[6],0.12
same,glycan array binding signal (z-score),[7],-0.283
same,glycan array binding signal (z-score),[8],1.24
same,glycan array binding signal (z-score),[9],-0.72
same,glycan array binding signal (z-score),[10],0.262
same,glycan array binding signal (z-score),[11],-0.158
same,glycan array binding signal (z-score),[12],-0.067
same,glycan array binding signal (z-score),[13],0.505
same,glycan array binding signal (z-score),[14],-0.567
same,glycan array binding signal (z-score),[15],-0.901
same,glycan array binding signal (z-score),[16],-0.623
same,glycan array binding signal (z-score),[17],-0.762
same,glycan array binding signal (z-score),[18],-1.14
same,glycan array binding signal (z-score),[19],-0.777
same,glycan array binding signal (z-score),[20],0.68
same,glycan array binding signal (z-score),[21],0.971
same,glycan array binding signal (z-score),[22],0.667
same,glycan array binding signal (z-score),[23],0.269
same,glycan array binding signal (z-score),[24],-0.544
same,glycan array binding signal (z-score),[25],-0.54
same,glycan array binding signal (z-score),[26],1.61
same,glycan array binding signal (z-score),[27],-0.3
same,glycan array binding signal (z-score),[28],1.95
same,glycan array binding signal (z-score),[29],0.711
same,glycan array binding signal (z-score),[30],1.31
same,glycan array binding signal (z-score),[31],1.63
same,glycan array binding signal (z-score),[32],-0.614
same,glycan array binding signal (z-score),[33],-0.379
same,glycan array binding signal (z-score),[34],-0.274
same,glycan array binding signal (z-score),[35],-0.128
same,glycan array binding signal (z-score),[36],0.103
same,glycan array binding signal (z-score),[37],0.305
same,glycan array binding signal (z-score),[38],0.527
same,glycan array binding signal (z-score),[39],-0.254
same,glycan array binding signal (z-score),[40],0.1
same,glycan array binding signal (z-score),[41],0.314
same,glycan array binding signal (z-score),[42],0.203
same,glycan array binding signal (z-score),[43],0.476
same,glycan array binding signal (z-score),[44],2.11
same,glycan array binding signal (z-score),[45],1.17

# As a short view, part of the list above:
binder,measurement,setting,value
B1,glycan array binding signal (z-score),[15],-0.901
same,glycan array binding signal (z-score),[16],-0.623
same,glycan array binding signal (z-score),[17],-0.762
same,glycan array binding signal (z-score),[18],-1.14
same,glycan array binding signal (z-score),[19],-0.777
same,glycan array binding signal (z-score),[20],0.68
same,glycan array binding signal (z-score),[21],0.971
same,glycan array binding signal (z-score),[22],0.667
same,glycan array binding signal (z-score),[23],0.269
same,glycan array binding signal (z-score),[24],-0.544
same,glycan array binding signal (z-score),[25],-0.54
